Measurements taken from article PMC6765184.
No constants are given. Whether binding was seen depends on the method and setting. For some assays here: Binding seen in cells or lysates may run through a third protein. Some binding calls cover weakened binding; strength is not graded here. Sequences can lack the tags named with a protein. Values belong to the binder of their own block, whether it stands above or below them.

Assays:
[1] = target: T1, Klp5-HA (recombinant, full length) (S. pombe) (UniProt O14343); assay: SEC; co-expressed in E. coli; complex held on IgG Sepharose by protein A on Klp5, cut off with PreScission protease, then Superose-6 gel filtration in LEW buffer (50 mM HEPES pH 7.5, 300 mM KCl) at 4°C
T1 sequence: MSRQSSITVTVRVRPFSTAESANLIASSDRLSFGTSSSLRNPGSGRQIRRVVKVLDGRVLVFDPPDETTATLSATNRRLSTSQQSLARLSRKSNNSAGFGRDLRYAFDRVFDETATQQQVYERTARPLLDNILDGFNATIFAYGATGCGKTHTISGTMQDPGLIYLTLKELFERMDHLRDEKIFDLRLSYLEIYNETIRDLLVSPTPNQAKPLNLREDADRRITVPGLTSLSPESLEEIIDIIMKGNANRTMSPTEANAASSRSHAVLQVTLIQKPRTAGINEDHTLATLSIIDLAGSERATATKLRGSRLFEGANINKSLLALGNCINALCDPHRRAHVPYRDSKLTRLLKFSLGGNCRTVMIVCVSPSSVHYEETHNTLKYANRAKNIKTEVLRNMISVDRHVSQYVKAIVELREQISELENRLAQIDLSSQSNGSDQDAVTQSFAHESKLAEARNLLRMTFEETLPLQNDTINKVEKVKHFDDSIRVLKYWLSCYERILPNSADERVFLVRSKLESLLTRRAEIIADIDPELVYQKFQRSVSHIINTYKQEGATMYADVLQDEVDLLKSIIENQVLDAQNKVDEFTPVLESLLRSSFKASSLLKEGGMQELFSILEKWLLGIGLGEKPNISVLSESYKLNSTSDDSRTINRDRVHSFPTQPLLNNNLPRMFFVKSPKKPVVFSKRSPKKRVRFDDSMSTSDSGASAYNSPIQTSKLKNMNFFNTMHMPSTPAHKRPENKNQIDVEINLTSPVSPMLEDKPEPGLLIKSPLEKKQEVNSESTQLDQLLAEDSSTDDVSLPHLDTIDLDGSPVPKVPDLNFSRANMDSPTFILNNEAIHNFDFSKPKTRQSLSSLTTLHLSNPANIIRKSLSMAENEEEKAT

Klp6-GFP (S. pombe) = target: T2, Klp6-GFP (S. pombe) (UniProt O59751); assay: co-IP; Klp6-GFP precipitated with magnetic GFP-trap from 2.8 mg S. pombe whole cell extract, 1.5 h at 4°C, IP buffer (50 mM Tris-HCl pH 7.4, 1 mM EDTA, 150 mM NaCl, 0.05% NP-40, 10% glycerol); blot with anti-FLAG and anti-GFP
T2 sequence: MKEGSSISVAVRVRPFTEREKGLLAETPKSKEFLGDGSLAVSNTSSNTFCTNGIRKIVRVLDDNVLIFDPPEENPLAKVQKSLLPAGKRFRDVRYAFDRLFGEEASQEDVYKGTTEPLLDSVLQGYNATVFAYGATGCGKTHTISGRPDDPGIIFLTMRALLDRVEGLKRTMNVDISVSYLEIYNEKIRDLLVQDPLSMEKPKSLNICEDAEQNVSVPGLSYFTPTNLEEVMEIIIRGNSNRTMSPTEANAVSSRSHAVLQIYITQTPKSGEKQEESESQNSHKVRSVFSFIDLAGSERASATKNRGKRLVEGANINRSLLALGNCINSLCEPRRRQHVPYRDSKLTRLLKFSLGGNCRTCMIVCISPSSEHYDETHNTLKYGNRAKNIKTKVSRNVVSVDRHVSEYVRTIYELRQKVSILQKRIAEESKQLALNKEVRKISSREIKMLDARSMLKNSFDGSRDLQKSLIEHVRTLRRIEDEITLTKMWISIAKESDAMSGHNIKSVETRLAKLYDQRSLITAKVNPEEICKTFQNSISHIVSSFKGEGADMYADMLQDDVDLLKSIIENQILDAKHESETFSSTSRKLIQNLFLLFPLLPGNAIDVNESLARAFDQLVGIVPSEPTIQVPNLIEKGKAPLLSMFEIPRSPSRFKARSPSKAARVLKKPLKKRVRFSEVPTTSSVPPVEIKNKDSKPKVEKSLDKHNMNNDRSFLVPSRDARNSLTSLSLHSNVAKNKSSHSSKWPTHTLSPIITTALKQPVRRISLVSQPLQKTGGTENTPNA

B1: Klp6-msfGFP (recombinant, full length) (protein, UniProt O59751 1-784)
chain: T2 sequence
binding [1]: binds

binding (Klp6-GFP (S. pombe)): binds
B2: Klp5-5FLAG (wild type) (protein, UniProt O14343 1-883)
chain: T1 sequence
